In all, about 400,000 compounds went through this assay and about 13,000 (3.2%) were called active. The inconclusive results got no clear call from the source; some entries with a clear call stand among them for comparison. The call rests on the fitted dose curve; in most records, active means well fitted cell-killing curve with a large enough effect; inconclusive means small, poorly fitted or top-dose-only effect, or effect the other way; inactive means flat fitted curve, though single readings scatter. Potencies beside an inconclusive call are fits to weak or partial responses and may not hold up.
Test: qHTS assay for MDR1-selective chemotherapeutics: Primary screen using the drug-selected MDR subline cells KB-V1; further: nearly all actives have a fitted effect of over 60% in size
Conditions: KB-V1 MDR cells viability, CellTiter-Glo, 72 h; activity change, negative = cytotoxicity: at 46.1 µM (top of the series)
Summary of the method: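 qHTS viability screen in drug-selected KB-V1 MDR cells: 72 h compound treatment at 37 degrees C, ATP luminescence end point.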
On the % scale 0 is the no-effect control and ±100 the full control effect; potency means the concentration at half of the fitted maximal effect.

| Structure (SMILES) | Potency | activity change, negative = cytotoxicity |
| --- | --- | --- |
| Cc1ccc(-c2ccc(S(=O)(=O)N3CCN(C)CC3)cc2)cc1 | active: 13 µM |  |
| Cc1cc(=O)[nH]c(N2CCCCC2)n1 |  | inactive: -14.8% |
| CC1CC(=O)Nc2ccccc2N1C(=O)COc1ccccc1C(N)=O (configuration not stated) | inconclusive: 29.1 µM [rising, single point] |  |
| COCCn1c(=NC(=O)CCS(=O)(=O)c2ccccc2)sc2c(OC)ccc(OC)c21 | inconclusive: 0.651 µM [cytotoxic, full curve, poor fit] |  |
| COc1ccc(NC(=O)CSc2ccc(-c3sc(C)nc3C)nn2)cc1 | inconclusive: 18.4 µM [cytotoxic, partial curve] |  |
| CC(NC(=O)C12CC3CC(CC(C3)C1)C2)C(=O)NN=Cc1ccc([N+](=O)[O-])o1 (configuration not stated) | inconclusive: 18.4 µM [cytotoxic, single point] |  |
| O=C1NC[C@H](CCCCN2C[C@H](Cc3ccccc3)N(CCc3ccc(O)cc3)C(=O)C2=O)N(CCc2ccccc2)C1=O |  | inactive: 5.52% |
| O=C1CC(N2CCN(c3ccccc3)CC2)C(=O)N1CCc1ccccc1 (configuration not stated) | inconclusive: 4.61 µM [cytotoxic, full curve, poor fit] |  |
| C=CCCC(=O)N1C[C@H]2CON(C)[C@H]2C[C@H]1c1ccc(Br)cc1 | inconclusive: 16.4 µM [cytotoxic, partial curve] |  |
| O=C(O)c1ccccc1/C=N/NC(=O)C1CCCC1 |  | inconclusive: 31.4% |
| COc1ccc(NC(=O)CCN2CCN(S(=O)(=O)c3ccc(C(C)C)cc3)CC2)cc1 | inconclusive: 20.6 µM [cytotoxic, partial curve, poor fit] |  |
| CCCc1nc2c(s1)CCc1onc(-c3ccc(Cl)cc3)c1-2 |  | inactive: 17.8% |
| Cc1ccc2cc(CN(Cc3ccco3)Cc3nnnn3Cc3ccco3)c(=O)[nH]c2c1 | inconclusive: 13 µM [cytotoxic, single point] |  |
| CCOC(=O)C1=C[C@@H](CC)N(S(=O)(=O)c2ccc(C)cc2)[C@H]1c1cccs1 | inconclusive: 29.1 µM [cytotoxic, single point] |  |
| COc1ccccc1C(=O)NCCC(=O)N1CCN(c2ccccc2O)CC1 | inconclusive: 9.2 µM [cytotoxic, partial curve, poor fit] |  |
| CCC(=O)Oc1c(C(=O)CC)cc2c(C)cc(=O)oc2c1C | active: 16.4 µM |  |
| Nc1ncnc2c1c(-c1ccc(Oc3ccccc3)cc1)cn2C1CCCC1 | inconclusive: 20.6 µM [cytotoxic, partial curve, poor fit] |  |
| O=C(CNC(=O)C1CCCCC1)OCC(=O)c1ccc(Br)cc1 | inconclusive: 29.1 µM [rising, single point] |  |
| O=Cc1ccc(Cl)cc1 |  | inactive: 2.04% |
| CC(C)(O)CC[C@H](OC(=O)c1ccccc1)[C@](C)(O)[C@H]1CC[C@@]2(O)C3=CC(=O)[C@@H]4C[C@@H](O)[C@H](O)C[C@]4(C)C3CC[C@]12C (some centres not stated) |  | inactive: -1.66% |
| Cc1nn(Cc2ccccc2Cl)c(C)c1NC(=O)C1C2CCC(O2)C1C(=O)O (configuration not stated) | inconclusive: 20.6 µM [cytotoxic, partial curve, poor fit] |  |
| CN(/N=C\c1ccc(O)c(O)c1)c1nc(-c2ccccc2)cc(-c2ccccc2)n1 | inconclusive: 20.6 µM [cytotoxic, single point] |  |
| Cc1ccc(S(=O)(=O)N2CCCN(S(=O)(=O)c3ccc4ccccc4c3)CC2)cc1 | active: 8.2 µM |  |

| Structure (SMILES) | Potency | activity change, negative = cytotoxicity |
| --- | --- | --- |
| Cc1cccc(C2N3CC4(C(C)C)CN2CC(C(C)C)(C3)C4=O)c1 (configuration not stated) | inconclusive: 16.4 µM [cytotoxic, partial curve, poor fit] |  |
| COc1ccc(Sc2nnc(Cc3ccccc3)c3ccccc23)cc1 | inconclusive: 29.1 µM [cytotoxic, single point] |  |
| Cc1c(C(=O)OCCOc2ccccc2)[nH]c2c1C(=O)CCC2 | active: 11.6 µM |  |
| COc1ccc(N2CCN(c3cc(C)c4ccccc4n3)CC2)cc1 | inconclusive: 16.4 µM [cytotoxic, partial curve] |  |
| CC(=O)N1CCN(CCN=CC2=C(O)CC(c3ccc(Cl)cc3)CC2=O)CC1 (configuration not stated) | inconclusive: 29.1 µM [rising, single point] |  |
| Cn1c(NCc2cccc(Br)c2)nc2ccccc21 | inconclusive: 20.6 µM [cytotoxic, single point] |  |
| OC(c1ccccc1)c1nc(-c2cccs2)cs1 (configuration not stated) |  | inactive: 1.53% |
| CC(=NO)C1CCC2C3CCC4=CC(=NO)CCC4(C)C3C(O)CC12C (configuration not stated) | active: 20.6 µM |  |
| CCSc1nc(COC(=O)NC)c(COC(=O)NC)n1C | inconclusive: 25.9 µM [rising, single point] |  |
| O=C(Nc1cccc(S(=O)(=O)N2CCCC2)c1)c1ccc2c(=O)n3c(nc2c1)CCCCC3 | inconclusive: 23.1 µM [cytotoxic, single point] |  |
| Cc1ccc(Nc2ncc(C(=O)NCCCN3CCN(C)CC3)c3ccccc23)cc1Cl | inconclusive: 2.06 µM [cytotoxic, partial curve, poor fit] |  |
| CC(=O)N1CCCc2cc(S(=O)(=O)N(C)CC(=O)Nc3ccc(F)c(Cl)c3)ccc21 | inconclusive: 4.11 µM [cytotoxic, full curve, poor fit] |  |
| CCCCCC(=O)N1C[C@@H](n2cc(-c3ccc(F)cc3)nn2)[C@H](O)C[C@@H]1c1ccc(Cl)cc1 | inconclusive: 29.1 µM [cytotoxic, partial curve, poor fit] |  |
| COc1ccc(-n2cc(CNCCCn3ccnc3)c(-c3ccccc3Cl)n2)cc1 |  | inactive: 5.4% |
| S=c1[nH]nc(Cc2noc3ccccc23)n1-c1ccccc1 |  | inactive: -14.1% |
| CC1(c2ccccc2)CC(C)(C)n2c(O)c(C3=NC(=S)NC3=O)c3cccc1c32 (configuration not stated) | active: 11.6 µM |  |
| CN(C(=O)c1cccs1)C1(C)CCS(=O)(=O)C1 (configuration not stated) | inconclusive: 29.1 µM [rising, single point] |  |
| CCCNC(=S)NC1CC2CCCC(C1)N2Cc1ccccc1OC (configuration not stated) |  | inactive: -8.09% |
| COc1ccc(-n2ccnc2SCC(=O)NC2CCCC2)c(OC)c1 | inconclusive: 13 µM [cytotoxic, partial curve] |  |
| COc1ccc(/C=N/OCC(=O)OCC(=O)N(C)c2ccccc2)cc1 |  | inactive: 5.52% |
| c1ccc(-c2ccc3cnccc3n2)cc1 |  | inactive: 0% |
| O=C(Nc1ccc2ccccc2c1)Nc1nnc(-c2ccccc2)s1 |  | inactive: 4.24% |
| O=C(NCCC1CCCCN1S(=O)(=O)c1cccs1)C(=O)Nc1ccc(F)cc1F (configuration not stated) | active: 14.6 µM |  |

3 of these compounds in a different format:
Structure (SMILES) | Potency | activity change, negative = cytotoxicity
CC1CC(=O)Nc2ccccc2N1C(=O)COc1ccccc1C(N)=O (configuration not stated) | inconclusive: 29.1 µM [rising, single point] | 
CCOC(=O)C1=C[C@@H](CC)N(S(=O)(=O)c2ccc(C)cc2)[C@H]1c1cccs1 | inconclusive: 29.1 µM [cytotoxic, single point] | 
COc1ccccc1C(=O)NCCC(=O)N1CCN(c2ccccc2O)CC1 | inconclusive: 9.2 µM [cytotoxic, partial curve, poor fit] | 

More structures:

| Structure (SMILES) | Potency | activity change, negative = cytotoxicity |
| --- | --- | --- |
| CSC1=N/C(=C/c2cccnc2)C(=O)N1Cc1ccc(Cl)cc1 | inconclusive: 29.1 µM [cytotoxic, partial curve, poor fit] |  |
| O=C(NCCCN1CCOCC1)C1CCN(S(=O)(=O)c2c(Cl)cccc2Cl)CC1 | inconclusive: 20.6 µM [rising, partial curve] |  |
| Cc1cc(C)c(NC(=O)CSc2nc(=O)n(Cc3ccco3)c3c2CCC3)c(C)c1 |  | inactive: -8.06% |
| O=C(NNC(=O)c1ccncc1)NC1CCCCC1 | inconclusive: 16.4 µM [rising, partial curve] |  |
| CC1(C)NC(=O)N(CCCCOc2ccc3c(c2)CCC3)C1=O | inconclusive: 29.1 µM [cytotoxic, single point] |  |
| CCc1nc2oc3ccccc3c(=O)c2cc1C(=O)OC |  | inactive: -25.4% |
| CC(C)=CCC/C(C)=C/CNC(=O)C[C@H]1C[C@H](C(=O)N2CCOCC2)[C@@]2(C)c3[nH]c4cc(CCC(=O)N(C)C)ccc4c3CCN2C1=O |  | inactive: 13.8% |
| COc1ccc2[nH]c3c(c2c1)CCN1C(=O)C(CC(=O)NCC24CC5CC(CC(C5)C2)C4)C[C@H](C(=O)N2CCOCC2)[C@@]31CCC1CCCC1 (some centres not stated) | inconclusive: 29.1 µM [cytotoxic, single point] |  |
| CCN1CCN(CCCNC(=O)CNC(=O)c2nn(-c3ccc(OC)cc3)c(=O)c3ccccc23)CC1 | inconclusive: 8.2 µM [rising, partial curve, poor fit] |  |
| COc1ccc2c(Sc3ccccc3)c(C(=O)NCCN(C)C)[nH]c2c1 |  | inactive: -16% |
| CCN(CC(=O)Nc1ccccc1C(F)(F)F)CC(=O)NC1CC1 | inconclusive: 16.4 µM [cytotoxic, partial curve, poor fit] |  |
| COc1ccc(NC2=C(C)C(=O)CC2)cc1 | inconclusive: 32.6 µM [cytotoxic, single point] |  |
| COc1cccc(NC(=O)CN(C)C(=O)CCCc2nc3ccccc3s2)c1 | inconclusive: 10.3 µM [cytotoxic, partial curve, poor fit] |  |
| O=C(Cc1ccccc1)Nc1ccc(NC(=O)c2ccc(Br)cc2)cc1 | inconclusive: 23.1 µM [rising, single point] |  |
| CCOC(=O)Cn1nc2oc(=O)c(CCN3CCN(c4ccccc4OC)CC3)c(C)c2c1C | inconclusive: 32.6 µM [cytotoxic, partial curve, poor fit] |  |
| O=C(Nc1ccncc1)C1(c2ccccc2)CCCC1 | inconclusive: 18.4 µM [cytotoxic, single point] |  |
| c1ccc(CC2CCN(c3nc4ccccc4n4nnnc34)CC2)cc1 |  | inactive: -14.1% |
| CCOc1ncccc1C(=O)OCC(=O)Nc1cc(S(=O)(=O)N2CCOCC2)ccc1C | inconclusive: 23.1 µM [cytotoxic, single point] |  |
| CCN(CC)C(=O)c1sc2c(c1C)c(=O)n(-c1ccc(C)c(C)c1)c(=O)n2CC(=O)Nc1ccc(F)cc1 | inconclusive: 29.1 µM [cytotoxic, single point] |  |
| O=C(N/N=C/c1cccc([N+](=O)[O-])c1)c1cccs1 | inconclusive: 29.1 µM [cytotoxic, single point] |  |
| Cc1ccc2c(c1)c(=O)c(S(=O)(=O)c1ccc(F)cc1)cn2CC(=O)Nc1ccc2c(c1)OCO2 | inconclusive: 32.6 µM [rising, single point] |  |
